PubChem BioAssay AID1259405 – NCATS, 2018

Screen: 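Silenced genes that increase secreted GFP made by CHO cells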 (primary screen)
Cells: Chinese hamster CHO-K1 ovary cells with stable secreted eGFP expression
Reagents: single siRNA against mouse genes, 0.8 pmol siRNA per well (2 µl of 400 nM stock)
Duration: 3 days
Measured: 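Percent of the per-plate non-targeting control median for intracellular GFP per well by laser scanning cytometry and for cell viability by ATP luminescence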
Direction: GFP, % of control: higher = more GFP per well, higher productivity; viability (ATP), % of control: higher = more viable cells (more ATP)
Rule for the call: 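a knock-down is called active if GFP reaches 120% or more of non-targeting control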
In all, the deposit lists about 50,000 reagents; below is an unselected part. About 4,000 of all reagents (8%) count as active. 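Mouse siRNA library applied to hamster cells; one well for each siRNA.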 Unmarked entries are inactive. Reagents against one gene are numbered here. Reagent sequences are not shown.

gene symbol | reagent no. | GFP, % of control | viability (ATP), % of control
Or2l5 | 1 | 81.9 | 85.6
Or2l5 | 2 | 71.9 | 76.6
Or2l5 | 3 | 109 | 44.9
Creb3l4 | 1 | 47.7 | 32.7
Creb3l4 | 2 | 52.3 | 52.9
Creb3l4 | 3 | 95.1 | 120
Gid4 | 1 | 106 | 94.1
Gid4 | 2 | 84.9 | 87.9
Gid4 | 3 | 115 | 114
Ap4b1 | 1 | 83.4 | 104
Ap4b1 | 2 | 63.8 | 79.4
Zfp7 | 1 | 60.3 | 61.5
Zfp7 | 2 | 39.3 | 52
Pla2r1 | 1 | 70.9 | 61.9
Pla2r1 | 2 | 77.2 | 50.1
Pla2r1 | 3 | 81.9 | 64.1
Nip7 | 1 | 62 | 80
Nip7 | 2 | 61.1 | 69.5
Nip7 | 3 | 115 | 86.1
Gtf2h5 | 1 | 78 | 97.2
Gtf2h5 | 2 | 43.9 | 35.3
Gtf2h5 | 3 | 31.9 | 26.4
Rnf181 | 1 | 75.3 | 79.6
Rnf181 | 2 | 60.7 | 65.6
Rnf181 | 3 | 147 (active) | 81.7
Cerkl | 1 | 81.1 | 78.4
Cerkl | 2 | 43.9 | 63.7
Cerkl | 3 | 63.6 | 89.1
Or6z7 | 1 | 126 (active) | 90.2
Or6z7 | 2 | 74.7 | 86.9
Or6z7 | 3 | 108 | 85.6
Jam3 | 1 | 102 | 69.2
Jam3 | 2 | 47.3 | 66.6
Jam3 | 3 | 86.9 | 102
